Some of these results come from one statement about several compounds together. {DOTA-AEEA-S-S} = N-terminal DOTA chelator joined through an AEEA linker and two serines; {EEY-NH2} = C-terminal Glu-Glu-Tyr amide
System: SKOV3 cells
Test: LigandTracer kinetics of binding to living SKOV3 cells
Conditions: 177Lu-labeled probes; SKOV3 cells pre-treated with ZHER2:342-SR-HP15 for secondary probes; Interaction Map; read-out: KD (equilibrium dissociation constant)

Row | Substance | Kd
1 | DOTA-AEEA-S-S-a-t-c-a-a-c-a-c-c-a-g-g-E-E-Y-NH2 (ATCAACACCAGG; chemistry not fully specified) [HP17, secondary probe, 12-mer PNA] | 0.011 to 0.012 nM
2 | DOTA-AEEA-S-S-a-t-c-a-t-c-a-a-c-a-c-c-a-g-g-E-E-Y-NH2 (ATCATCAACACCAGG; all peptide nucleic acid (PNA), 5' {DOTA-AEEA-S-S}, 3' {EEY-NH2}) [HP18, secondary probe, 15-mer PNA] | 0.011 to 0.012 nM
